In the supplement of paper PMC7666118:
Some of the results follow.

By UniProt entry, the sequences of proteins in these tests, tags left out. Where a name states a change or a piece, a line headed by the entry shows the natural chain unless it says otherwise.
UniProt Q9P0J0, whole entry: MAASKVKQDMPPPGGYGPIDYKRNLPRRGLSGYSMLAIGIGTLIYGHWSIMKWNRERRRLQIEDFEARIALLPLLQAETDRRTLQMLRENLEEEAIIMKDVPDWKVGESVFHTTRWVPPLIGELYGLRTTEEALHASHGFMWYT
UniProt P53370: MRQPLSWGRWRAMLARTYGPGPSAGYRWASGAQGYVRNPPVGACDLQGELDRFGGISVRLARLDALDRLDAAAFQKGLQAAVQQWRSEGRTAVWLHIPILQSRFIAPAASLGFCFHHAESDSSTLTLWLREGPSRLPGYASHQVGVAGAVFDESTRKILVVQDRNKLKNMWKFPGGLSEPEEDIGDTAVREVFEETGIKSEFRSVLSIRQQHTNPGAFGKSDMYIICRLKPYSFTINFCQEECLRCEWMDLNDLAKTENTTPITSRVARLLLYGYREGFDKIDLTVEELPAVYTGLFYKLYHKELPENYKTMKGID
UniProt Q9BPW8: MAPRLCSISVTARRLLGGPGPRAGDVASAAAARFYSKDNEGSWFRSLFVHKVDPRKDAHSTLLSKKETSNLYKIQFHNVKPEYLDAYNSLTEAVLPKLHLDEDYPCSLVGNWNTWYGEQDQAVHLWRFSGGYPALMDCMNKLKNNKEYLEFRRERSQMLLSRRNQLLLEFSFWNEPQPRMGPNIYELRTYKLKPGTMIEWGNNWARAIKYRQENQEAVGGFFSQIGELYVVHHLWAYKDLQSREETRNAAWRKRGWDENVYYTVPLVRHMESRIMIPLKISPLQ
UniProt O00746: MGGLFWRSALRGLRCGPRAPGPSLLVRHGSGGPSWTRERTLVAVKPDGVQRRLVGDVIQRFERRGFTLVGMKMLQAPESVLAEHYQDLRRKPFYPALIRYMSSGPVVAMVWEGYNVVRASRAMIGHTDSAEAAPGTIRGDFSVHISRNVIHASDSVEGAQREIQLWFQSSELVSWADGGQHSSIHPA
UniProt Q8TBE9: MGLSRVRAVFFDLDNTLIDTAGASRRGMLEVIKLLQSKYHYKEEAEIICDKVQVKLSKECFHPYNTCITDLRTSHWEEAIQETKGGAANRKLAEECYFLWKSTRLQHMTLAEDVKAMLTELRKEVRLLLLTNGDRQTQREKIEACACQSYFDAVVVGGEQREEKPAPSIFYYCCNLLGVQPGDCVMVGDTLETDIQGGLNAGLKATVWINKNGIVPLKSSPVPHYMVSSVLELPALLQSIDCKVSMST
UniProt P13056: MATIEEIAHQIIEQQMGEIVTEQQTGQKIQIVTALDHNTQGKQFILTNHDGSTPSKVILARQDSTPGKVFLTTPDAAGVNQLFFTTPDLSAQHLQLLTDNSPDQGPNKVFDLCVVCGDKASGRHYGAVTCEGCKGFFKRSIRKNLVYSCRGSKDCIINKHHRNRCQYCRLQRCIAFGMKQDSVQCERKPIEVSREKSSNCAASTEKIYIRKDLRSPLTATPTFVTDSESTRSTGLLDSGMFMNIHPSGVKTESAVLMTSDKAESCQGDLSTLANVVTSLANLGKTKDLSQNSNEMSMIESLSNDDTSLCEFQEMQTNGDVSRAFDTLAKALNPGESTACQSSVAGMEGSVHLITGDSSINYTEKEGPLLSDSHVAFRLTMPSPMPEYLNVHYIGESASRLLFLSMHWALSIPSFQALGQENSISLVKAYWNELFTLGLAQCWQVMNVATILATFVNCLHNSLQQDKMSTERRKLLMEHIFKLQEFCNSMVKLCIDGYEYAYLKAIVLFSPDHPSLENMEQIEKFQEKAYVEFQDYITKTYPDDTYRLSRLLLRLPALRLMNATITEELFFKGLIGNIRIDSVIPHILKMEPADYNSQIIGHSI
UniProt P49821, whole entry: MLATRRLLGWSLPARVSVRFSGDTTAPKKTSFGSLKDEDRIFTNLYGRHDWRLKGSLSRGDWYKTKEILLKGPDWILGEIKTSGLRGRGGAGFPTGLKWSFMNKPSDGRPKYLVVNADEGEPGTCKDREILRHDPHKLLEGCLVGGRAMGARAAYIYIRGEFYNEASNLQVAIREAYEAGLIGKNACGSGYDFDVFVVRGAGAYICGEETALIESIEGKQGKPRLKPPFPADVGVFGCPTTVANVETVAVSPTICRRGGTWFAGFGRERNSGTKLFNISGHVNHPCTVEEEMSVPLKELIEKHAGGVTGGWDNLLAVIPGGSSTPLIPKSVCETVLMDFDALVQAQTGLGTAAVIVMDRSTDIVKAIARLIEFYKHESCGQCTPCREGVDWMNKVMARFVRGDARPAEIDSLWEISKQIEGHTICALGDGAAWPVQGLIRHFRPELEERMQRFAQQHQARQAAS
UniProt Q9H9Q4: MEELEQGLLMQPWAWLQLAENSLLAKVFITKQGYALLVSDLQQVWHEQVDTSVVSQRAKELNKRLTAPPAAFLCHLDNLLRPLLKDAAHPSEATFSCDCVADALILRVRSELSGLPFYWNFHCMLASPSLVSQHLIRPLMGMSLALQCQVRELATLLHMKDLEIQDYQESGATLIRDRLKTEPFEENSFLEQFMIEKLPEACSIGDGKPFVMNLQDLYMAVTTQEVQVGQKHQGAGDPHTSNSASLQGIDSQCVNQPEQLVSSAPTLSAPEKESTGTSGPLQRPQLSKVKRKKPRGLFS
UniProt O43676, whole entry: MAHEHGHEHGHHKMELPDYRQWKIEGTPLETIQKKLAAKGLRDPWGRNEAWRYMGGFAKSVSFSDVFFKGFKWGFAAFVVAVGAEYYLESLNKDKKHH
UniProt Q96HR8: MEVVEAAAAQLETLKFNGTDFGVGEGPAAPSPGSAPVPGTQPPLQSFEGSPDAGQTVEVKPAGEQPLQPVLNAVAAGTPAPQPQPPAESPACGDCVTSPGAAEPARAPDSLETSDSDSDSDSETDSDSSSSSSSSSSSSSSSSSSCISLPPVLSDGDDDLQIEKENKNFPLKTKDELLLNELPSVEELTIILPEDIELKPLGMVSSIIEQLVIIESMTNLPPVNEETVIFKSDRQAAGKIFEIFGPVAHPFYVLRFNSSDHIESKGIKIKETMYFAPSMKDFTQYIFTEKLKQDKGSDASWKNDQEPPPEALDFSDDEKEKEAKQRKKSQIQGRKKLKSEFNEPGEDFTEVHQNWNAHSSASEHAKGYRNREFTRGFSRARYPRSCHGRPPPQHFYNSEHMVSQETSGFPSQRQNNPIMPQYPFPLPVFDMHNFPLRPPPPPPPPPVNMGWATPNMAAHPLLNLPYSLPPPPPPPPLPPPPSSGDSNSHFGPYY
UniProt Q8TB37: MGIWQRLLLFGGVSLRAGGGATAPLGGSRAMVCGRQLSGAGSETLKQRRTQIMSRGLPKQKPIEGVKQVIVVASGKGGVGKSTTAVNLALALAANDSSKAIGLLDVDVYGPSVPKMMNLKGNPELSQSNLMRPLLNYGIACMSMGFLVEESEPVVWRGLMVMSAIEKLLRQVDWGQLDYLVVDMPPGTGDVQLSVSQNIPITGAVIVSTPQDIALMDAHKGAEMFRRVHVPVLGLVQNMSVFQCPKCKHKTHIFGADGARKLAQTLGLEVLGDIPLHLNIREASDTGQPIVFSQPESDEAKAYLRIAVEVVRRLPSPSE
UniProt A2RRP1: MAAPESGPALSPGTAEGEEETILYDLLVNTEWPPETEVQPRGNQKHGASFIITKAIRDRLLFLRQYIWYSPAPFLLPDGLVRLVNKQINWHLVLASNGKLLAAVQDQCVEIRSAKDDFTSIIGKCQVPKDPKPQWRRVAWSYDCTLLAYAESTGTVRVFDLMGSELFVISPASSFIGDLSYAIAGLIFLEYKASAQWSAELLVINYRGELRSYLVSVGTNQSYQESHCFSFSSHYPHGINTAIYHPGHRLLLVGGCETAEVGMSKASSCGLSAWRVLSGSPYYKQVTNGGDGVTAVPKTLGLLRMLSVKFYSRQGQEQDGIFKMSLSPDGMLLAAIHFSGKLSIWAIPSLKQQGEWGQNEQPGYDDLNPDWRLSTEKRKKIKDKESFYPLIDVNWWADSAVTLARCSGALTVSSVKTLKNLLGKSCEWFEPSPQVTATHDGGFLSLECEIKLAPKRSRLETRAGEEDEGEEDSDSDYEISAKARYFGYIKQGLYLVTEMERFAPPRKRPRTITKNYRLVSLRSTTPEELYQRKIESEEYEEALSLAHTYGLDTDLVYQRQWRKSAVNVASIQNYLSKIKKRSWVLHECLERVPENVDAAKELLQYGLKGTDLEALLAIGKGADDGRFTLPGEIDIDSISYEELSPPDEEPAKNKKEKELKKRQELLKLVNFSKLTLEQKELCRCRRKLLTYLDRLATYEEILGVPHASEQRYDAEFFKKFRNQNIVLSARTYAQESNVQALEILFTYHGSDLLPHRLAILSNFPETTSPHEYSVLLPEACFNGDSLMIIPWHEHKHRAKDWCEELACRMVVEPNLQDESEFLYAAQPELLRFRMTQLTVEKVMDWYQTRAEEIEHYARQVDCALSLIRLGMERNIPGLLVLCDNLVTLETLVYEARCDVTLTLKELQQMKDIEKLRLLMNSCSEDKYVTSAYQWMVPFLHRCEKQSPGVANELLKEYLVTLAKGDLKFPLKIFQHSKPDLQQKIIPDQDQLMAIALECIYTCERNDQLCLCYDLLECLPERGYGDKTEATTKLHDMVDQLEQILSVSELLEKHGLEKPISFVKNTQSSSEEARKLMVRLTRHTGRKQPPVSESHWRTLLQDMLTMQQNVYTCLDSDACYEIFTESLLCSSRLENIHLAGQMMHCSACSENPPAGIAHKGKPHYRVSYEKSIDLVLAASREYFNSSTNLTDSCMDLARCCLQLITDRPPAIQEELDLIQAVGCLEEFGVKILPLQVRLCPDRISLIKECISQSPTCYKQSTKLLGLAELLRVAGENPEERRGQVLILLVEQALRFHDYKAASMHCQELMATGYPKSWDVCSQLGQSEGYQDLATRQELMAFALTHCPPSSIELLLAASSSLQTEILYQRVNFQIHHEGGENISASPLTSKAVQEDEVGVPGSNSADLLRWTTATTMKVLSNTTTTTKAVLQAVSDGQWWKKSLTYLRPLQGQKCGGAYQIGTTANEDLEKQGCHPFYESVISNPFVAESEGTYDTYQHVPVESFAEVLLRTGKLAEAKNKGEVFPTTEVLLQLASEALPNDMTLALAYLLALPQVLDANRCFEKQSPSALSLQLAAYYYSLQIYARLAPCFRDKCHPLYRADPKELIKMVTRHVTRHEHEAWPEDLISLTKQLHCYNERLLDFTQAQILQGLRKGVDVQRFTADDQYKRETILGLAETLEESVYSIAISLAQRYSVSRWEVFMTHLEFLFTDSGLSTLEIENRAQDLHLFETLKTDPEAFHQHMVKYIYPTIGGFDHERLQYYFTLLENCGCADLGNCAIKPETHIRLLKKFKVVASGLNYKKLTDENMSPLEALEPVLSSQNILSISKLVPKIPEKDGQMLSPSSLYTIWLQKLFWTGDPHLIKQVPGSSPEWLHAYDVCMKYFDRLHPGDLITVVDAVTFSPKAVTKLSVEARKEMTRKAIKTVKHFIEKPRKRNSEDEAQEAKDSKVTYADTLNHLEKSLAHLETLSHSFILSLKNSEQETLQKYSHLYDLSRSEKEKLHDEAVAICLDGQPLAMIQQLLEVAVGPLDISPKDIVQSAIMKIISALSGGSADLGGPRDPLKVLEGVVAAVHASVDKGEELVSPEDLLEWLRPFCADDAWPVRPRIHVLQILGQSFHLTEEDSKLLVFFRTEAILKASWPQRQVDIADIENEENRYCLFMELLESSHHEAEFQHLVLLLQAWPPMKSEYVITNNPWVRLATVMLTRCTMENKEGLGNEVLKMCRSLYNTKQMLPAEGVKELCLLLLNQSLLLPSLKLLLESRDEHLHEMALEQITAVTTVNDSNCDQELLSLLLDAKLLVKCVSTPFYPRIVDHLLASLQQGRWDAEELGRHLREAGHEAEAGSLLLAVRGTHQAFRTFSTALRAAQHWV
UniProt Q9UHY1: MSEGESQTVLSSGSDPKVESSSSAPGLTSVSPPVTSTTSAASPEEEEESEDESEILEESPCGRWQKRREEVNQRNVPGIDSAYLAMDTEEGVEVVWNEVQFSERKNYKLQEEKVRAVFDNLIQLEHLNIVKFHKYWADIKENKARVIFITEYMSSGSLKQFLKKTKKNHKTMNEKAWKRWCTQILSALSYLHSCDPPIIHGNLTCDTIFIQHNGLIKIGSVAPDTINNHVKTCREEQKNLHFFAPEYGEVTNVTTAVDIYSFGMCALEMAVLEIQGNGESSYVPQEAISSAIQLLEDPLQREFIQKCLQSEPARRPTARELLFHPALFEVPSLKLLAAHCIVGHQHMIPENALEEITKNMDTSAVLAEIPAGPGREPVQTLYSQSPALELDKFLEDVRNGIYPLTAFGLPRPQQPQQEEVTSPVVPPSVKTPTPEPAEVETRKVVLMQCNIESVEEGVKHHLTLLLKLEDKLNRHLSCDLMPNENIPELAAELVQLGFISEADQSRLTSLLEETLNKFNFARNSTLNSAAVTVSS

Compound: COc1ccc(Cn2ccc3cc(C)c(C(=O)NO)cc32)cc1
Assay: dose-dependent thermal stabilisation call (2D-TPP, DLPTP, 10% FDR) (binary (1 = stabilised)); higher = stabilised by the compound
Details: system: HL-60 intact cells; concentration range 0.04-10 µM
Procedure: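 2D thermal proteome profiling in intact HL-60 cells treated with BRD-3811 (0, 0.04, 0.29, 2, 10 uM) for 90 min at 37 C, then heated 3 min at one of 12 temperatures (42-63.9 C). Soluble protein was quantified by TMT10 MS. The value is the DLPTP call of the paper: dose-dependent thermal stabilisation over all temperatures at 10% FDR (F-test of a dose-response against a flat model); one experiment, one call per tested protein.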

Target	dose-dependent thermal stabilisation call
OCRL (UniProt Q01968)	inactive: 0
NOP14 (UniProt P78316)	inactive: 0
NDUFA13 (UniProt Q9P0J0)	inactive: 0
NUDT6 (UniProt P53370)	inactive: 0
NUP155 (UniProt O75694)	inactive: 0
NOL5A (UniProt O00567)	inactive: 0
NUP50 (UniProt Q9UKX7)	inactive: 0
NIPSNAP1 (UniProt Q9BPW8)	inactive: 0
NPEPPS (UniProt P55786)	active: 1
NUP153 (UniProt P49790)	inactive: 0
NME4 (UniProt O00746)	inactive: 0
NCAPG (UniProt Q9BPX3)	inactive: 0
NDOR1 (UniProt Q9UHB4)	inactive: 0
NANP (UniProt Q8TBE9)	inactive: 0
NEDD4 (UniProt P46934)	inactive: 0
NR2C1 (UniProt P13056)	inactive: 0
NDUFV1 (UniProt P49821)	inactive: 0
NDUFAB1 (UniProt O14561)	inactive: 0

Target	dose-dependent thermal stabilisation call
NUDCD1 (UniProt Q96RS6)	inactive: 0
NHEJ1 (UniProt Q9H9Q4)	inactive: 0
NOSIP (UniProt Q9Y314)	inactive: 0
NKAP (UniProt Q8N5F7)	inactive: 0
NDUFB3 (UniProt O43676)	inactive: 0
NRAS (UniProt P01111)	inactive: 0
NAT1 (UniProt P18440)	inactive: 0
NAF1 (UniProt Q96HR8)	inactive: 0
NCAPD2 (UniProt Q15021)	inactive: 0
NUBPL (UniProt Q8TB37)	inactive: 0
NAG (UniProt A2RRP1)	inactive: 0
NDRG3 (UniProt Q9UGV2)	inactive: 0
NEK4 (UniProt P51957)	inactive: 0
NRBP1 (UniProt Q9UHY1)	inactive: 0
NCAPG2 (UniProt Q86XI2)	inactive: 0
NAT10 (UniProt Q9H0A0)	inactive: 0
NAPG (UniProt Q99747)	inactive: 0
NCOR2 (UniProt Q9Y618)	inactive: 0

Reprinted at random: two records from the list, in no set order.
Target	dose-dependent thermal stabilisation call
NAT10 (UniProt Q9H0A0)	inactive: 0
NEK4 (UniProt P51957)	inactive: 0
